Reference: the supplement of paper PMC6418307
Counter-ions that a name gives are not always drawn. Single values of this set are uncertain.

Test system: primary mouse cortical neurons
Experiment: cell health score (luciferase spike-in reads / total reads per well) (fraction); higher = fewer cellular reads, worse cell health / toxicity
Details: treatment time 24 h
[1] = 0.01 µM, sex of neuron culture: Female
[2] = 0.01 µM, sex of neuron culture: Male
[3] = 0.1 µM, sex of neuron culture: Female
[4] = 0.1 µM, sex of neuron culture: Male
[5] = 1 µM, sex of neuron culture: Female
[6] = 1 µM, sex of neuron culture: Male
[7] = 10 µM, sex of neuron culture: Female
[8] = 10 µM, sex of neuron culture: Male

Nc1c(Cl)c(Cl)nc(C(=O)O)c1Cl [Picloram]
cell health score [1]: 0.000456 | cell health score [2]: 0.000585 | cell health score [3]: 0.00057 | cell health score [4]: 0.000825 | cell health score [5]: 0.000753 | cell health score [6]: 0.000786 | cell health score [7]: 0.000351 | cell health score [8]: 0.000669

CCCCOCCOCCOCc1cc2c(cc1CCC)OCO2 [Piperonyl butoxide]
cell health score [1]: 0.000564 | cell health score [2]: 0.000773 | cell health score [3]: 0.00173 | cell health score [4]: 0.00062 | cell health score [5]: 0.000745 | cell health score [6]: 0.000701 | cell health score [7]: 0.000839 | cell health score [8]: 0.00067

Cc1nc(N(C)C)nc(OC(=O)N(C)C)c1C [Pirimicarb]
cell health score [1]: 0.000722 | cell health score [2]: 0.000907 | cell health score [3]: 0.000814 | cell health score [4]: 0.00112 | cell health score [5]: 0.000648 | cell health score [6]: 0.00074 | cell health score [7]: 0.00117 | cell health score [8]: 0.000582

CCN(CC)c1nc(C)cc(OP(=S)(OC)OC)n1 [Pirimiphos-methyl]
cell health score [1]: 0.000589 | cell health score [2]: 0.000718 | cell health score [3]: 0.000924 | cell health score [4]: 0.000918 | cell health score [5]: 0.00103 | cell health score [6]: 0.000569 | cell health score [7]: 0.00156 | cell health score [8]: 0.00065

C#CCC1=C(C)C(OC(=O)C2C(C=C(C)C)C2(C)C)CC1=O (stereo not drawn) [Prallethrin]
cell health score [1]: 0.000653 | cell health score [2]: 0.000826 | cell health score [3]: 0.000861 | cell health score [4]: 0.000947 | cell health score [5]: 0.000835 | cell health score [6]: 0.00066 | cell health score [7]: 0.00105 | cell health score [8]: 0.000517

CCCN(CCOc1c(Cl)cc(Cl)cc1Cl)C(=O)n1ccnc1 [Prochloraz]
cell health score [1]: 0.000473 | cell health score [2]: 0.000685 | cell health score [3]: 0.000631 | cell health score [4]: 0.000631 | cell health score [5]: 0.000825 | cell health score [6]: 0.00108 | cell health score [7]: 0.000731 | cell health score [8]: 0.000661

CCCN(CCC)c1c([N+](=O)[O-])cc(C(F)(F)F)c(N)c1[N+](=O)[O-] [Prodiamine]
cell health score [1]: 0.000718 | cell health score [2]: 0.00107 | cell health score [3]: 0.000774 | cell health score [4]: 0.00106 | cell health score [5]: 0.000801 | cell health score [6]: 0.000772 | cell health score [7]: 0.000868 | cell health score [8]: 0.000514

CCCSP(=O)(OCC)Oc1ccc(Br)cc1Cl (stereo not drawn) [Profenofos]
cell health score [1]: 0.000668 | cell health score [2]: 0.00118 | cell health score [3]: 0.00103 | cell health score [4]: 0.001 | cell health score [5]: 0.000946 | cell health score [6]: 0.000774 | cell health score [7]: 0.00184 | cell health score [8]: 0.000724

COc1nc(NC(C)C)nc(NC(C)C)n1 [Prometon]
cell health score [1]: 0.000735 | cell health score [2]: 0.000978 | cell health score [3]: 0.000563 | cell health score [4]: 0.000759 | cell health score [5]: 0.000675 | cell health score [6]: 0.000515 | cell health score [7]: 0.00102 | cell health score [8]: 0.000518

CSc1nc(NC(C)C)nc(NC(C)C)n1 [Prometryn]
cell health score [1]: 0.000671 | cell health score [2]: 0.000702 | cell health score [3]: 0.000788 | cell health score [4]: 0.00104 | cell health score [5]: 0.000644 | cell health score [6]: 0.000602 | cell health score [7]: 0.000699 | cell health score [8]: 0.000468

CCCOC(=O)NCCCN(C)C [Propamocarb hydrochloride]
cell health score [1]: 0.000515 | cell health score [2]: 0.000773 | cell health score [3]: 0.000784 | cell health score [4]: 0.000751 | cell health score [5]: 0.00118 | cell health score [6]: 0.000704 | cell health score [7]: 0.00161 | cell health score [8]: 0.000808

CCC(=O)Nc1ccc(Cl)c(Cl)c1 [Propanil]
cell health score [1]: 0.000577 | cell health score [2]: 0.0011 | cell health score [3]: 0.00105 | cell health score [4]: 0.001 | cell health score [5]: 0.000961 | cell health score [6]: 0.000549 | cell health score [7]: 0.00133 | cell health score [8]: 0.000987

C#CCOS(=O)OC1CCCCC1Oc1ccc(C(C)(C)C)cc1 (stereo not drawn) [Propargite]
cell health score [1]: 0.000369 | cell health score [2]: 0.000909 | cell health score [3]: 0.00132 | cell health score [4]: 0.00148 | cell health score [5]: 0.00101 | cell health score [6]: 0.00151 | cell health score [7]: 0.00744 | cell health score [8]: 0.00533

CC(C)Nc1nc(Cl)nc(NC(C)C)n1 [Propazine]
cell health score [1]: 0.000484 | cell health score [2]: 0.000902 | cell health score [3]: 0.000732 | cell health score [4]: 0.000822 | cell health score [5]: 0.000883 | cell health score [6]: 0.000474 | cell health score [7]: 0.000993 | cell health score [8]: 0.000662

CCNP(=S)(OC)O/C(C)=C/C(=O)OC(C)C (stereo not drawn) [Propetamphos]
cell health score [1]: 0.000484 | cell health score [2]: 0.000853 | cell health score [3]: 0.000645 | cell health score [4]: 0.000891 | cell health score [5]: 0.000909 | cell health score [6]: 0.000487 | cell health score [7]: 0.000819 | cell health score [8]: 0.000523

CCCC1COC(Cn2cncn2)(c2ccc(Cl)cc2Cl)O1 (stereo not drawn) [Propiconazole]
cell health score [1]: 0.000363 | cell health score [2]: 0.000501 | cell health score [3]: 0.00123 | cell health score [4]: 0.000775 | cell health score [5]: 0.000957 | cell health score [6]: 0.000585 | cell health score [7]: 0.000754 | cell health score [8]: 0.000739

CNC(=O)Oc1ccccc1OC(C)C [Propoxur]
cell health score [1]: 0.000511 | cell health score [2]: 0.000672 | cell health score [3]: 0.00128 | cell health score [4]: 0.000769 | cell health score [5]: 0.000991 | cell health score [6]: 0.000989 | cell health score [7]: 0.00091 | cell health score [8]: 0.000861

CCCOc1nn(C(=O)NS(=O)(=O)c2ccccc2C(=O)OC)c(=O)n1C [Propoxycarbazone-sodium]
cell health score [1]: 0.000368 | cell health score [2]: 0.00272 | cell health score [3]: 0.000682 | cell health score [4]: 0.000742 | cell health score [5]: 0.000748 | cell health score [6]: 0.00048 | cell health score [7]: 0.000782 | cell health score [8]: 0.00066

C#CC(C)(C)NC(=O)c1cc(Cl)cc(Cl)c1 [Propyzamide]
cell health score [1]: 0.000524 | cell health score [2]: 0.000989 | cell health score [3]: 0.000862 | cell health score [4]: 0.00069 | cell health score [5]: 0.000687 | cell health score [6]: 0.000634 | cell health score [7]: 0.000838 | cell health score [8]: 0.000419

COc1ccc(C[C@H](N)C(=O)N[C@H]2[C@@H](O)[C@H](n3cnc4c(N(C)C)ncnc43)O[C@@H]2CO)cc1 [Puromycin]
cell health score [1]: 0.000471 | cell health score [2]: 0.000825 | cell health score [3]: 0.000646 | cell health score [4]: 0.00076 | cell health score [5]: 0.00627 | cell health score [6]: 0.00376 | cell health score [7]: 0.0016 | cell health score [8]: 0.0062

CC1=NNC(=O)N(/N=C/c2cccnc2)C1 [Pymetrozine]
cell health score [1]: 0.000495 | cell health score [2]: 0.00088 | cell health score [3]: 0.00135 | cell health score [4]: 0.000801 | cell health score [5]: 0.000886 | cell health score [6]: 0.000764 | cell health score [7]: 0.00122 | cell health score [8]: 0.000483

COC(=O)N(OC)c1ccccc1COc1ccn(-c2ccc(Cl)cc2)n1 [Pyraclostrobin]
cell health score [1]: 0.00497 | cell health score [2]: 0.0144 | cell health score [3]: 0.00825 | cell health score [4]: 0.0102 | cell health score [5]: 0.0103 | cell health score [6]: 0.0115 | cell health score [7]: 0.0147 | cell health score [8]: 0.0117

CCOC(=O)COc1cc(-c2nn(C)c(OC(F)F)c2Cl)c(F)cc1Cl [Pyraflufen-ethyl]
cell health score [1]: 0.000598 | cell health score [2]: 0.00104 | cell health score [3]: 0.00194 | cell health score [4]: 0.000782 | cell health score [5]: 0.00134 | cell health score [6]: 0.000852 | cell health score [7]: 0.000623 | cell health score [8]: 0.00239

CC(C)(C)c1ccc(CSc2cnn(C(C)(C)C)c(=O)c2Cl)cc1 [Pyridaben]
cell health score [1]: 0.0222 | cell health score [2]: 0.0136 | cell health score [3]: 0.0152 | cell health score [4]: 0.00908 | cell health score [5]: 0.0112 | cell health score [6]: 0.0106 | cell health score [7]: 0.0095 | cell health score [8]: 0.0122

Cc1cc(C)nc(Nc2ccccc2)n1 [Pyrimethanil]
cell health score [1]: 0.000695 | cell health score [2]: 0.000952 | cell health score [3]: 0.00116 | cell health score [4]: 0.000785 | cell health score [5]: 0.000794 | cell health score [6]: 0.000642 | cell health score [7]: 0.00102 | cell health score [8]: 0.00047

CC(COc1ccc(Oc2ccccc2)cc1)Oc1ccccn1 (stereo not drawn) [Pyriproxyfen]
cell health score [1]: 0.000495 | cell health score [2]: 0.000702 | cell health score [3]: 0.000698 | cell health score [4]: 0.000664 | cell health score [5]: 0.000782 | cell health score [6]: 0.000482 | cell health score [7]: 0.0007 | cell health score [8]: 0.000468
